Assay results: publication PMC6925144, “A prospective compound screening contest identified broader inhibitors for Sirtuin 1” (Scientific Reports, 2019)
Whole data set: some 3,200 compounds, median “TSA(with NAD+) / Primary screening (TSA) / delta Tm (K)” near -0.04, cut for the highest 2% near 0.37. The list shows a part of the results.

By UniProt entry, the sequences of proteins in these tests, tags left out. Residues count along the entry.
UniProt Q96EB6, 2-747 limits assumed: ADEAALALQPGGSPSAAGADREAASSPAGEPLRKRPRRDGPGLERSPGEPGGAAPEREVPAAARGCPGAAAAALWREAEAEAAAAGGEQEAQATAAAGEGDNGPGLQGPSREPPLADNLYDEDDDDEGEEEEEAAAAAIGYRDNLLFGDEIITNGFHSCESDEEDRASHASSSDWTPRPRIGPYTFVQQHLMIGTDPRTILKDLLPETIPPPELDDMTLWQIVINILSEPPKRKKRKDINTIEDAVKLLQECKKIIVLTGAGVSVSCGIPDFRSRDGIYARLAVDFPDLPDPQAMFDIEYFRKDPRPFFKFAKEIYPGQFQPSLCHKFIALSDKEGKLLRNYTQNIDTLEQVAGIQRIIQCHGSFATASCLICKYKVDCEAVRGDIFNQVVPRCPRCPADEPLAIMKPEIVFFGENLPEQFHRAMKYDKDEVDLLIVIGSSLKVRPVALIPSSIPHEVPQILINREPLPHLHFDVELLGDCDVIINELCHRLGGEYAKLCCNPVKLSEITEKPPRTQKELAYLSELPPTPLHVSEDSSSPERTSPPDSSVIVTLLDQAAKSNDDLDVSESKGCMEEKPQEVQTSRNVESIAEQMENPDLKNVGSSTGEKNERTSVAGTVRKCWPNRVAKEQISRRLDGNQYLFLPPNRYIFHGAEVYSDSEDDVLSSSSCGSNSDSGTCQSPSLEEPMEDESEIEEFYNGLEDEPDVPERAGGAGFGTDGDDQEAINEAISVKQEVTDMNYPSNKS

biological target: NAD-dependent deacetylase Sirtuin 1 (human, UniProt Q96EB6); test: primary screen, delta tm; parameters: single well (n = 1, as 'the same TSA'); settings: 10 µM

Compound | TSA(with NAD+) / Primary screening (TSA) / delta Tm (K)
Oc1cccc2c1Cc1c-2nc2ccc(Cl)cc2c1-c1ccccc1Cl | 0.52
O=C(OCc1cc(Cl)ccn1)c1ccc2[nH]c(C(F)F)nc2c1 | -0.03
COc1ccccc1NC(=O)c1ccc(NC(=O)COC(=O)C23CC4CC(CC(C4)C2)C3)cc1 | 0.39
COC(=O)NC1(C(=O)Nc2cnc3ccccc3n2)CCCC1 | -0.14
NC(=O)C1CCCN1C1CCN(c2ccnc3c(F)cccc23)CC1 (stereo not drawn) | -0.05
CC1Cc2ccccc2N1C(=O)c1ccc(Cl)nc1Cl (stereo not drawn) | -0.09
O=[N+]([O-])c1ccc(CSc2nnc(-c3c[nH]c4ccccc34)n2-c2ccc(Cl)cc2)cc1 | 0.03
Cc1cccc(NC=C2C(=O)NC(=S)NC2=O)n1 | -0.13
O=C(CCCNC(=O)c1cccs1)NNC(=O)COc1ccccc1-c1ccccc1 | -0.09
O=C(NCc1cccnc1N1CCOCC1)C1=COCCO1 | -0.12
CCn1cc(CC(=O)N2CCC(CN3CCCC3)C2)c2ccccc21 (stereo not drawn) | -0.06
CCCOc1ccc(C(=O)C2=C(O)C(=O)N(CCN3CCOCC3)C2c2ccc([N+](=O)[O-])cc2)cc1 (stereo not drawn) | -0.13
CCCNC(=O)CSc1nnc(-c2c[nH]c3ccccc23)n1Cc1ccco1 | 0.05
COc1ccc(N(C)S(=O)(=O)c2cccc(C(=O)Nc3ccc(Br)cc3F)c2)cc1 | 0.36
O=C(O)c1ccc2c(=O)n3c(nc2c1)/C(=C\c1cccc(O)c1)CC3 | 0.05
CC(C)c1ccc2c(c1)CCCN2C(=O)CCn1cnc2ccccc2c1=O | -0.11
COc1cc(C=C2C(=O)NC(=S)NC2=O)cc(Br)c1OC | -0.11
CCC(N)CC | -0.11
CCCCN(C(=O)c1cccc(S(=O)(=O)N(C)c2ccc(C)cc2)c1)c1c(N)n(CC(C)C)c(=O)[nH]c1=O | -0.14
CC1(c2cccc(N)c2)NC(=O)NC1=O (stereo not drawn) | 0.02

Compound | TSA(with NAD+) / Primary screening (TSA) / delta Tm (K)
Cn1c(SCc2ccc(F)cc2)nc2ccsc2c1=O | -0.23
CC1CCc2sc(C(=O)Nc3ccccc3Cc3ccccc3)cc2C1 (stereo not drawn) | -0.13
Cc1ccc(-c2n[nH]cc2CNCc2ccc(CN(C)C)cc2)cc1 | -0.08
NC(=O)c1cc(NCC(=O)Nc2ccccc2Cl)c(F)cc1F | -0.08
c1ccc(-c2nc(CN3CCN(c4ncnc5sc6c(c45)CCCC6)CC3)cs2)cc1 | 0.06
CCNCCOCCN | -0.24
Cc1c(O)ccc2c(CN3CCCC3c3ccc[nH]3)cc(=O)oc12 (stereo not drawn) | 0.09
Cc1cc(C#N)ccc1S(=O)(=O)N1CC[C@H](N)C1 | -0.05
CCOCc1c(C(=O)Nc2ccc(N3CCN(Cc4ccccc4)CC3)cc2)oc2ccccc12 | 0.06
COc1ccc(-c2csc3nc(C)nc(N4CCN(CC(=O)NC5CC5)CC4)c23)cc1OC | 0.06
Cc1ccccc1SCC(=O)NC1CCCCNC1=O (stereo not drawn) | -0.08
O=C(CSc1nc2ccccc2o1)N(Cc1ccccc1)c1nc2c(s1)CCCC2 | 0.16
CC(C(=O)Nc1ccc(C(N)=O)cc1)N1CCN(CCOc2ccccc2)CC1 (stereo not drawn) | -0.23
Cc1no[n+]([O-])c1COc1cccc(C=C2C(=O)NC(=S)NC2=O)c1 | -0.04
CCc1ccc(CNC(=O)N2CCOC(C)(c3cnn(C)c3)C2)cc1 (stereo not drawn) | -0.01
O=c1cc(CSc2ncc(C(F)(F)F)cc2Cl)nc2ccccn12 | -0.23
CC(Oc1ccc(-c2nc3ccccc3s2)cc1)C(=O)NCc1ccco1 (stereo not drawn) | -0.16
O=C(O)CCCc1ccc2c(c1)-c1ccccc1C2 | 0.06
Cc1nc(-n2ccnc2)c2cnn(-c3cccc(Cl)c3)c2n1 | -0.11
NC(=O)c1cc(NC(=O)c2ccc(NC(=O)NC3CC3)cc2)ccc1F | -0.01

Compound | TSA(with NAD+) / Primary screening (TSA) / delta Tm (K)
O=c1n(CCCc2nc3ccccc3o2)nc2ccccn12 | -0.05
CCOC(=O)c1c(NC(=O)C(C)OC(=O)c2cccc(S(=O)(=O)N3CCCC3)c2)sc2c1CCC(C)C2 (stereo not drawn) | -0.08
Cc1ccc(N(C)S(=O)(=O)c2cccc(C(=O)Nc3cc(S(C)(=O)=O)ccc3C)c2)cc1 | -0.05
O=C(Nc1ccc(NC(=O)c2[nH]c3ccccc3c2Cl)cc1)NC1CC1 | 0.16
COc1ccccc1CNC(=O)COC(=O)c1ccccc1SCC(=O)NC12CC3CC(CC(C3)C1)C2 | -0.19
Clc1ncnc2c1nnn2-c1ccccc1 | -0.09
NC(CC(=O)O)C(=O)O (stereo not drawn) | -0.03
O=c1scnn1Cc1ncn(-c2ccccc2)n1 | -0.09
CC(NC(=O)c1ccc2c(c1)CCC2)c1ncc[nH]1 (stereo not drawn) | -0.16
Cc1ccc(C=C2C(=O)NC(=S)NC2=O)o1 | -0.19
Cn1c(=O)[nH]c(=O)c2nc(CC(O)c3cc4ccccc4o3)c(O)nc21 (stereo not drawn) | -0.22
Cc1cccn2c(=O)cc(COc3cccc4c3CCCC4O)nc12 (stereo not drawn) | -0.13
Cc1ccc(C)c(OCCSc2nnc(-c3cccnc3)n2N)c1 | -0.04
COc1ccc(NC(=O)c2cccc(C(N)=O)c2)cc1OCc1cccnc1 | -0.26
CC(N)CCCCN (stereo not drawn) | -0.26
CN(CC1COc2ccccc2O1)C(=O)CSc1nnc(-c2ccccc2Cl)n1C1CCCC1 (stereo not drawn) | 0.06
Cn1ccnc1SCc1c(C(=O)O)oc2ccccc12 | -0.01
CN(c1ccccc1)S(=O)(=O)c1cccc(C(=O)OCc2ccccc2C#N)c1 | -0.11
Cc1ccc(-c2csc3ncn(CC(=O)NC(=O)Nc4ccc5c(c4)OCCO5)c(=O)c23)s1 | 0.17
CC(=O)NC12CC3CC(C1)CC(C(=O)Oc1ccc(N(C)S(=O)(=O)c4cc(C)ccc4C)cc1)(C3)C2 | -0.18

A stretch taken from the entries so far, as a working copy:
Compound | TSA(with NAD+) / Primary screening (TSA) / delta Tm (K)
Cc1ccc(N(C)S(=O)(=O)c2cccc(C(=O)Nc3cc(S(C)(=O)=O)ccc3C)c2)cc1 | -0.05
O=C(Nc1ccc(NC(=O)c2[nH]c3ccccc3c2Cl)cc1)NC1CC1 | 0.16
COc1ccccc1CNC(=O)COC(=O)c1ccccc1SCC(=O)NC12CC3CC(CC(C3)C1)C2 | -0.19
